Results deposited as PubChem BioAssay AID1053208 (Peter MacCallum Cancer Centre, 2014)

Test: 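Synthetic lethal interactions between gene loss and doxorubicin in osteosarcoma cells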 (primary screen)
System: mouse osteosarcoma cells, early-passage culture from an engineered mouse model of fibroblastic bone tumour
Reagents: siRNA pool against mouse genes, 40 nM
Time to read-out: about 120 h (48 h before drug, then 72 h with drug)
Challenge: doxorubicin 100 nM for 72 h, roughly 30-40% inhibitory dose
Measured: 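Luminescent ATP signal taken as viability with or without 100 nM doxorubicin for 72 h; mean of two wells set against non-targeting siRNA and turned into robust z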
Direction: viability z-score with doxorubicin and doxorubicin viability vs non-targeting: higher = more viable cells under doxorubicin; viability z-score without drug: higher = more viable cells with knock-down alone; z-score of drug to no-drug ratio: higher = less drug sensitisation by knock-down
Active means: 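Called active if knock-down leaves viability unchanged without drug (z within -2 to 2) but lowers it with doxorubicin (z at or under -2)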
The whole screen tested about 17,000 reagents; shown is an unselected part. In the full data, 788 (4.7%) are marked active. 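Calls rest on z-score classes alone; an extra cut-off of viability at most 70% of control was not applied to them.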 The numbers tell different reagents against one gene apart.

Target gene | pool no. | combined z-score class | viability z-score with doxorubicin | viability z-score without drug | z-score of drug to no-drug ratio | doxorubicin viability vs non-targeting | Call
Appbp2 (amyloid beta precursor protein binding protein 2) | 1 | no change with or without drug | 0.34 | -1.35 | 1.46 | 0.97 | inactive
Amh (anti-Mullerian hormone) | 1 | no change with or without drug | 1.46 | -0.84 | 2.36 | 1.07 | inactive
Sgcg (sarcoglycan, gamma (dystrophin-associated glycoprotein)) | 1 | no change with or without drug | 0 | -0.17 | 0.22 | 0.94 | inactive
Traip (TRAF-interacting protein) | 1 | no change with or without drug | -0.9 | -1.52 | 0.22 | 0.86 | inactive
Pdrg1 (p53 and DNA damage regulated 1) | 1 | no change with or without drug | -0.9 | 0.17 | -0.9 | 0.86 | inactive
Lima1 (LIM domain and actin binding 1) | 1 | no change with or without drug | 1.01 | -0.51 | 1.57 | 1.03 | inactive
Shc3 (src homology 2 domain-containing transforming protein C3) | 1 | no change with or without drug | -0.45 | -0.51 | 0 | 0.9 | inactive
2310057M21Rik (RIKEN cDNA 2310057M21 gene) | 1 | no change with or without drug | -1.24 | 0.51 | -1.46 | 0.83 | inactive
Abce1 (ATP-binding cassette, sub-family E member 1) | 1 | no change with or without drug | -0.67 | -0.51 | -0.22 | 0.88 | inactive
Palm (paralemmin) | 1 | no change with or without drug | -1.35 | -0.17 | -1.24 | 0.82 | inactive
Nubp1 (nucleotide binding protein 1) | 1 | no change with or without drug | 0.34 | 0 | 0.45 | 0.97 | inactive
Cdc25a (cell division cycle 25A) | 1 | no change with or without drug | 0.9 | 0.17 | 0.9 | 1.02 | inactive
Rdx (radixin) | 1 | no change with or without drug | -1.8 | -1.35 | -0.9 | 0.78 | inactive
Rtl8a (retrotransposon Gag like 8A) | 1 | no change with or without drug | -1.57 | 0 | -1.57 | 0.8 | inactive
Pcdhb10 (protocadherin beta 10) | 1 | no change with or without drug | -1.8 | -1.52 | -0.79 | 0.78 | inactive
B3galt2 | 1 | no change with or without drug | 0.45 | 0.84 | 0 | 0.98 | inactive

2 of these entries in another layout.
Target gene,pool no.,combined z-score class,viability z-score with doxorubicin,viability z-score without drug,z-score of drug to no-drug ratio,doxorubicin viability vs non-targeting,Call
Traip (TRAF-interacting protein),1,no change with or without drug,-0.9,-1.52,0.22,0.86,inactive
Pdrg1 (p53 and DNA damage regulated 1),1,no change with or without drug,-0.9,0.17,-0.9,0.86,inactive

The listing continues.
Target gene | pool no. | combined z-score class | viability z-score with doxorubicin | viability z-score without drug | z-score of drug to no-drug ratio | doxorubicin viability vs non-targeting | Call
Rbbp9 (retinoblastoma binding protein 9, serine hydrolase) | 1 | no change with or without drug | 1.24 | -0.51 | 1.8 | 1.05 | inactive
Lax1 (lymphocyte transmembrane adaptor 1) | 1 | no change with or without drug | 0 | 1.52 | -0.9 | 0.94 | inactive
Rac1 (Rac family small GTPase 1) | 1 | low cell count with and without drug | -2.81 | -4.22 | 0.11 | 0.69 | inactive
Nfatc2ip | 1 | no change with or without drug | -0.9 | 1.35 | -1.69 | 0.86 | inactive
Polr3h (polymerase (RNA) III (DNA directed) polypeptide H) | 1 | no change with or without drug | -1.24 | -0.84 | -0.67 | 0.83 | inactive
Tspoap1 (TSPO associated protein 1) | 1 | no change with or without drug | -0.11 | 0.84 | -0.56 | 0.93 | inactive
Obox2 (oocyte specific homeobox 2) | 1 | no change with or without drug | 0.79 | 1.01 | 0.22 | 1.01 | inactive
Zfp169 (zinc finger protein 169) | 1 | no change with or without drug | 1.01 | 0.67 | 0.67 | 1.03 | inactive
Nfia (nuclear factor I/A) | 1 | no change with or without drug | 1.35 | -0.17 | 1.69 | 1.06 | inactive
Nfia (nuclear factor I/A) | 2 | no change with or without drug | -0.45 | -1.01 | 0.34 | 0.9 | inactive
Cfap418 (cilia and flagella associated protein 418) | 1 | no change with or without drug | -0.79 | 0.17 | -0.79 | 0.87 | inactive
Pla2g2e (phospholipase A2, group IIE) | 1 | no change with or without drug | 0.9 | 0.51 | 0.67 | 1.02 | inactive
Cop1 (COP1, E3 ubiquitin ligase) | 1 | no change with or without drug | -0.9 | -0.67 | -0.34 | 0.86 | inactive
Dnajc19 (DnaJ heat shock protein family (Hsp40) member C19) | 1 | no change with or without drug | -1.8 | 0.67 | -2.14 | 0.78 | inactive
Akr1c20 (aldo-keto reductase family 1, member C20) | 1 | no change with or without drug | -0.45 | 0.34 | -0.56 | 0.9 | inactive
Dmrta1 | 1 | no change with or without drug | -1.35 | 1.52 | -2.14 | 0.82 | inactive
Tmem9 (transmembrane protein 9) | 1 | no change with or without drug | 1.46 | 1.52 | 0.56 | 1.07 | inactive
Lrfn1 | 1 | low cell count with doxorubicin only | -3.15 | -1.18 | -2.59 | 0.66 | active
